Earlier results as cited in US7329690B2, “Effectiveness of invertebrate pest-control agents” (FMC Corporation, priority 2001, dated 2008).
Some results were stated once for a whole list of compounds, not compound by compound.

SMILES	water solubility [ppm]
CC1(C)[C@H](C(=O)O[C@H](C#N)c2cccc(Oc3ccccc3)c2)[C@@H]1/C=C(\Cl)C(F)(F)F (racemic) [lambda cyhalothrin]	≤ 3
CCOCn1c(-c2ccc(Cl)cc2)c(C#N)c(Br)c1C(F)(F)F [chlorfenapyr]	≤ 3
N#Cc1nn(-c2c(Cl)cc(C(F)(F)F)cc2Cl)c(N)c1[S+]([O-])C(F)(F)F (stereo not drawn) [fipronil]	≤ 3
